This experiment deals with L1210 leukemia ip in BDF1 mice, survival T/C. Put plainly: NCI In Vivo Anticancer Drug Screen. Data for tumor model L1210 Leukemia (intraperitoneal) in B6D2F1 (BDF1) mice. The note with it: T/C endpoint: mean survival time, higher T/C = longer survival.
Setting [1] is: dose: 100.0 mg/kg/injection, schedule: Q04DX003 (ip), vehicle: Klucel (hydroxypropylcellulose) (HPC).
Where [2] appears, read: dose: 200.0 mg/kg/injection, schedule: Q04DX003 (ip), vehicle: Klucel (hydroxypropylcellulose) (HPC).
The mark [3] stands for this setting: dose: 400.0 mg/kg/injection, schedule: Q04DX003 (ip), vehicle: Klucel (hydroxypropylcellulose) (HPC).
The mark [4] stands for this setting: dose: 200.0 mg/kg/injection, schedule: Q01DX001 (ip), vehicle: saline.
Where [5] appears, read: dose: 200.0 mg/kg/injection, schedule: Q04DX003 (ip), vehicle: saline with Tween-80.
Setting [6] is: dose: 200.0 mg/kg/injection, schedule: Q04DX003 (ip), vehicle: saline.
Where [7] appears, read: dose: 400.0 mg/kg/injection, schedule: Q04DX003 (ip), vehicle: saline.
Setting [8] is: dose: 100.0 mg/kg/injection, schedule: Q01DX009 (ip), vehicle: Klucel (hydroxypropylcellulose) (HPC).
Where [9] appears, read: dose: 200.0 mg/kg/injection, schedule: Q01DX009 (ip), vehicle: Klucel (hydroxypropylcellulose) (HPC).
Where [10] appears, read: dose: 400.0 mg/kg/injection, schedule: Q04DX002 (ip), vehicle: Klucel (hydroxypropylcellulose) (HPC).

The list shows only some results of the screen, not a fair sample: it is rich in T/C values a quarter to a half above the control, in often repeated tests (any T/C) and in doses without a T/C. Further doses and runs are listed elsewhere. T/C is the treated group as % of the vehicle group. Some doses have a count of surviving animals in place of a T/C: the source files T/C as zero there, which appears to mark a toxic dose or a test without result, not a measured value. Some doses without a T/C left all or most animals alive at the check, yet need not have been tolerated: the source hardly ever lists a survival T/C far under the control, and the zero likely stands for such cases as well. Survivors were counted at the toxicity check, usually on the fifth day, unless a day is given; later deaths do not show. Schedule codes are those of the source, taken here to give the interval after Q, in days (D) or hours (H), and the number of doses after X. Brackets with × give the number of equal values in this list. Some entries hold several experiments; the results are listed from low to high. Some schedules carry Z or #; the key to these is not given. Where survival is the endpoint, the PubChem record calls one and a half times the control and up active, and a quarter to a half above the control has no call in these data; cut-offs in other NCI protocols can differ.

Regarding `Cc1cc(N(CCOS(C)(=O)=O)CCOS(C)(=O)=O)ccc1C=Nc1ccccc1C(=O)O`, the T/C (dose: 20.0 mg/kg/injection, schedule: Q04DX003 (ip), vehicle: Klucel (hydroxypropylcellulose) (HPC)) was 126 % of control. For the same compound, the survivor count is, setting by setting: (dose: 80.0 mg/kg/injection, schedule: Q04DX003 (ip), vehicle: Klucel (hydroxypropylcellulose) (HPC)) 6 of 6; under setting [1], 6 of 6; under setting [2], 5 of 6; under setting [3], 1 of 6.
With `Cc1cccc(C[Si](C)C)c1`, the survivor count under setting [4] is on record as 6 of 6.
`N#C/C=C/C#N`: the survivor count runs as follows: under setting [5], 0 of 6; (dose: 400.0 mg/kg/injection, schedule: Q04DX003 (ip), vehicle: saline with Tween-80) 0 of 6.
On to `CS(=O)(=O)OCCN(CCOS(C)(=O)=O)c1ccc(N=O)cc1`, for which the T/C was 142 % of control (dose: 0.31 mg/kg/injection, schedule: Q01DX Z (ip), vehicle: saline); 132 % of control (dose: 0.32 mg/kg/injection, schedule: Q01DX Z (ip), vehicle: carboxymethylcellulose (CMC)); 130 % of control (dose: 0.32 mg/kg/injection, schedule: Q01DX Z (ip), vehicle: saline); 132 % of control (dose: 0.5 mg/kg/injection, schedule: Q01DX001 (ip), vehicle: saline); 125 % of control (dose: 0.64 mg/kg/injection, schedule: Q01DX Z (ip), vehicle: carboxymethylcellulose (CMC)); 127 % of control (dose: 0.64 mg/kg/injection, schedule: Q01DX Z (ip), vehicle: saline). Moreover, the T/C is, setting by setting: (dose: 1.0 mg/kg/injection, schedule: Q01DX001 (ip), vehicle: saline) 129 and 132 % of control; (dose: 2.0 mg/kg/injection, schedule: Q01DX001 (ip), vehicle: saline) 135 % of control. Besides, the survivor count was 2 of 6 (dose: 2.5 mg/kg/injection, schedule: Q01DX Z (ip), vehicle: saline); 6 of 6 (dose: 4.0 mg/kg/injection, schedule: Q01DX001 (ip), vehicle: saline); 5 of 6 (dose: 8.0 mg/kg/injection, schedule: Q01DX001 (ip), vehicle: saline).
`CNC(C#N)c1ccco1` (stereo unspecified): the survivor count by setting is: (dose: 12.5 mg/kg/injection, schedule: Q04DX003 (ip), vehicle: saline) 0 of 6; (dose: 25.0 mg/kg/injection, schedule: Q04DX003 (ip), vehicle: saline) 1 of 6 and 2 of 6; (dose: 50.0 mg/kg/injection, schedule: Q04DX003 (ip), vehicle: saline) 0 of 6; (dose: 100.0 mg/kg/injection, schedule: Q04DX003 (ip), vehicle: saline) 0 of 6; under setting [6], 0 of 6; under setting [7], 0 of 6.
Regarding `NCCSSCCN`, where the note is “dose: 400.0 mg/kg/injection, schedule: Q04DX002 (ip), vehicle: saline”, the survivor count is 1 of 3.
As to `CC[P+](CCCCCCCCC[P+](CC)(Cc1ccccc1)c1ccccc1)(Cc1ccccc1)c1ccccc1` (stereo unspecified), the survivor count is, setting by setting: (dose: 10.0 mg/kg/injection, schedule: Q01DX001 (ip), vehicle: saline) 1 of 6; (dose: 20.0 mg/kg/injection, schedule: Q01DX001 (ip), vehicle: saline) 0 of 6; (dose: 40.0 mg/kg/injection, schedule: Q01DX001 (ip), vehicle: saline) 0 of 6; (dose: 80.0 mg/kg/injection, schedule: Q01DX001 (ip), vehicle: saline) 0 of 6; (dose: 100.0 mg/kg/injection, schedule: Q01DX001 (ip), vehicle: saline) 0 of 6; under setting [4], 0 of 6. Further, the survivor count (dose: 400.0 mg/kg/injection, schedule: Q01DX001 (ip), vehicle: saline) was 0 of 6.
As for `c1ccc(CCN2CCOCC2)nc1`, the survivor count under setting [7] is recorded as 5 of 6.
For the compound `CCc1cccc(CC)c1NC(=O)Nc1cc(Cl)ccc1C`, the survivor count by setting is: (dose: 100.0 mg/kg/injection, schedule: Q04DX003 (ip), vehicle: saline with Tween-80) 6 of 6; under setting [5], 6 of 6.
Regarding `[O-][n+]1ccccc1SSc1cccc[n+]1[O-]`, the T/C (dose: 3.12 mg/kg/injection, schedule: Q01DX009 (ip), vehicle: Klucel (hydroxypropylcellulose) (HPC)) is 135 % of control. Also, the survivor count runs as follows: (dose: 6.25 mg/kg/injection, schedule: Q01DX009 (ip), vehicle: Klucel (hydroxypropylcellulose) (HPC)) 1 of 3; (dose: 50.0 mg/kg/injection, schedule: Q01DX009 (ip), vehicle: Klucel (hydroxypropylcellulose) (HPC)) 0 of 3; under setting [8], 0 of 3; under setting [9], 0 of 3.
Take `O/N=C\C[n+]1cc2ccccc2cc1/C=N\O`: the survivor count under setting [6] is given as 2 of 6 and the survivor count under setting [7] is recorded as 0 of 6.
`C=CCNC(=O)Nc1ncc([N+](=O)[O-])s1`: the survivor count is, setting by setting: under setting [8], 2 of 3; (dose: 100.0 mg/kg/injection, schedule: Q04DX002 (ip), vehicle: Klucel (hydroxypropylcellulose) (HPC)) 3 of 3; (dose: 200.0 mg/kg/injection, schedule: Q04DX002 (ip), vehicle: Klucel (hydroxypropylcellulose) (HPC)) 3 of 3; under setting [10], 3 of 3.
On to `Clc1ccc2c(c1)-c1ccccc1C1=NCCN12`, for which the survivor count is, setting by setting: (dose: 20.0 mg/kg/injection, schedule: Q01DX009 (ip), vehicle: Klucel (hydroxypropylcellulose) (HPC)) 0 of 6; (dose: 40.0 mg/kg/injection, schedule: Q04DX003 (ip), vehicle: Klucel (hydroxypropylcellulose) (HPC)) 0 of 6; under setting [1], 0 of 6; under setting [2], 0 of 6; under setting [3], 0 of 6.
Take `O=[N+]([O-])/C=C\c1ccc2c(c1)OCO2`: the survivor count is, setting by setting: under setting [8], 2 of 6 (2×); under setting [9], 0 of 6; (dose: 400.0 mg/kg/injection, schedule: Q01DX009 (ip), vehicle: Klucel (hydroxypropylcellulose) (HPC)) 0 of 6; under setting [3], 2 of 6.
Take `CCCCCCCCCCCCCCCCCCNC(=O)Nc1ccc(C)c(Cl)c1`: the survivor count under setting [10] was 1 of 3.
Consider `CCOc1ccc(Br)cc1/C=N\N=C\c1cc(Br)ccc1OCC`, for which the survivor count under setting [6] was 5 of 6 and the survivor count under setting [7] is given as 5 of 6.
In the case of `COC(=O)Cc1c[nH]c(=O)[nH]c1=O`, the survivor count (dose: 400.0 mg/kg/injection, schedule: Q01DX009 (ip), vehicle: water) is given as 2 of 6.
Consider `CCC[N+](CC)(CC)CCOC(=O)C1C2CC3OC(=O)C1C3C2` (stereo unspecified), for which the survivor count reads like this: under setting [6], 1 of 3; under setting [7], 1 of 3.
Consider `CNCC(C)CNC`, for which the survivor count by setting is: (dose: 200.0 mg/kg/injection, schedule: Q01DX009 (ip), vehicle: saline) 2 of 6; under setting [6], 5 of 6; under setting [7], 1 of 6.
On to `CCCCCCCCCCCCCCCCCCSCCOCCSCCCCCCCCCCCCCCCCCC`, for which the survivor count (dose: 200.0 mg/kg/injection, schedule: Q01DX001 (ip), vehicle: Klucel (hydroxypropylcellulose) (HPC)) is 6 of 6.
For the compound `CN(Cc1cnc2nc(N)cc(N)c2n1)c1ccc(C(=O)NC(CCC(=O)O)C(=O)O)cc1` (stereo unspecified), the T/C is, setting by setting: (dose: 16.0 mg/kg/injection, schedule: Q01DX009 (ip), vehicle: other) 125 % of control; (dose: 25.0 mg/kg/injection, schedule: Q01DX009 (ip), vehicle: other) 143 % of control. Moreover, the survivor count is on record as 1 of 6 (dose: 200.0 mg/kg/injection, schedule: Q01DX009 (ip), vehicle: other) and 0 of 6 (dose: 400.0 mg/kg/injection, schedule: Q01DX009 (ip), vehicle: other).
As to `COc1ccc(/C=C2\CCC3C4(CCCC3(C)C2=O)OCCO4)cc1` (stereo unspecified), the survivor count (dose: 100.0 mg/kg/injection, schedule: Q01DX009 (ip), vehicle: saline) is given as 6 of 6.

The values are drawn from PubChem BioAssay AID248 (DTP/NCI, 2004).
